Data published in patent publication US7759369B2, “Pyridine compounds for the treatment of prostaglandin mediated diseases” (Glaxo Group Limited, priority 2004, dated 2010).
Some entries share one result that the patent states for a list of compounds.

Columns and labels:
EP3 receptors = biological target: T1, EP3 receptors (Homo sapiens, UniProt P43115); test: human EP3 calcium mobilisation assay (CHO-K1 cells, PGE2, FLIPR); format: cell-based; conditions: free bases or sodium salts; averages of a number of experiments
T1 construct: expressed in transfected cells; host or cells: CHO-K1
T1 sequence (P43115 1-390): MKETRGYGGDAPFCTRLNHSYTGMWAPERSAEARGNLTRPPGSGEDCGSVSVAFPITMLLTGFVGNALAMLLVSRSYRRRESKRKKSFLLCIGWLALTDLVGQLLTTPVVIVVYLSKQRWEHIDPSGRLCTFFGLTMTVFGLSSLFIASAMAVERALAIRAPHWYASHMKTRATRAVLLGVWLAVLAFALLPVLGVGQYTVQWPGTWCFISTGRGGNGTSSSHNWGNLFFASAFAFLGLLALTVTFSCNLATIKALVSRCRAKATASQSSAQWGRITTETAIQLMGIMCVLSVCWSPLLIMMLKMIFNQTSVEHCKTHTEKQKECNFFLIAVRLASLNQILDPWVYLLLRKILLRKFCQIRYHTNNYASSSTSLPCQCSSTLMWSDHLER
Method: Briefly, the antagonist properties of compounds are assessed by their ability to inhibit the mobilisation of intracellular calcium ([Ca^2+]i) in response to activation of EP1 or EP3 receptors by the natural agonist hormone prostaglandin E2 (PGE2). Increasing concentrations of antagonist reduce the amount of calcium that a given concentration of PGE2 can mobilise. The net effect is to displace the PGE2 concentration-effect curve to higher concentrations of PGE2. The amount of calcium produced is assessed using a calcium-sensitive fluorescent dye such as Fluo-4, AM and a suitable instrument such as a Fluorimetric Imaging Plate Reader (FLIPR). Increasing amounts of [Ca^2+]i produced by receptor activation increase the amount of fluorescence produced by the dye and give rise to an increasing signal. The signal may be detected using the FLIPR instrument and the data generated may be analysed with suitable curve-fitting software.
The human EP1 or EP3 calcium mobilisation assay (hereafter referred to as ‘the calcium assay’) utilises Chinese hamster ovary-K1 (CHO-K1) cells into which a stable (pCIN; BioTechniques 20 (1996): 102-110) vector containing either EP1 or EP3 cDNA has previously been transfected. Cells are cultured in suitable flasks containing culture medium such as DMEM:F-12 supplemented with 10% v/v foetal calf serum, 2 mM L-glutamine, 0.25 mg/ml geneticin, 100 μM flurbiprofen and 10 µg/ml puromycin.
For assay, cells are harvested using a proprietary reagent that dislodges cells such as Versene. Cells are re-suspended in a suitable quantity of fresh culture media for introduction into a 384-well plate. Following incubation for 24 hours at 37° C. the culture media is replaced with a medium containing Fluo-4 and the detergent pluronic acid, and a further incubation takes place. Concentrations of compounds are then added to the plate in order to construct concentration-effect curves. This may be performed on the FLIPR in order to assess the agonist properties of the compounds. Concentrations of PGE2 are then added to the plate in order to assess the antagonist properties of the compounds.
The data so generated may be analysed by means of a computerised curve-fitting routine. The concentration of compound that elicits a half-maximal inhibition of the calcium mobilisation induced by PGE2 (pIC50) may then be estimated.

EP1 receptors = biological target: T2, EP1 receptors (Homo sapiens, UniProt P34995); test: Binding assay for the human prostanoid EP1 receptor (competition with [3H]-PGE2); design: expressed in transfected cells; host or cells: CHO-K1 (membrane fraction); conditions: averages of a number of experiments; Example 3 as sodium salt
T2 sequence (P34995 1-402): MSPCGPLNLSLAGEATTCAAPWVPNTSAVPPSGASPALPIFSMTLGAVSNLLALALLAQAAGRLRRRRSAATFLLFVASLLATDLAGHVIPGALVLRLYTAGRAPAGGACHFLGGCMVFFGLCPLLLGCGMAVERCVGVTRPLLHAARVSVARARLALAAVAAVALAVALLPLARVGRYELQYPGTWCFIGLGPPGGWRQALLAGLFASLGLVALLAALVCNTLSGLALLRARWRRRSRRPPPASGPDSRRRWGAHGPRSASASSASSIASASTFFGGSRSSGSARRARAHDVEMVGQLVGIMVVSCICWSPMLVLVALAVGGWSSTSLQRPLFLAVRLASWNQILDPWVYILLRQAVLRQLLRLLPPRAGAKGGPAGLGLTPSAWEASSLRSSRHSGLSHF
Method: Binding Assay for the Human Prostanoid EP1 Receptor
Competition assay using [^3H]-PGE2.
Compound potencies are determined using a radioligand binding assay. In this assay compound potencies are determined from their ability to compete with tritiated prostaglandin E2 ([^3H]-PGE2) for binding to the human EP1 receptor.
This assay utilises Chinese hamster ovary-K1 (CHO-K1) cells into which a stable vector containing the EP1 cDNA has previously been transfected. Cells are cultured in suitable flasks containing culture medium such as DMEM:F-12 supplemented with 10% v/v foetal calf serum, 2 mM L-glutamine, 0.25 mg/ml geneticin, 10 μg/ml puromycin and 10 μM indomethacin.
Cells are detached from the culture flasks by incubation in calcium and magnesium free phosphate buffered saline containing 1 mM disodium ethylenediaminetetraacetic acid (Na2EDTA) and 10 μM indomethacin for 5 min. The cells are isolated by centrifugation at 250×g for 5 mins and suspended in an ice cold buffer such as 50 mM Tris, 1 mM Na2EDTA, 140 mM NaCl, 10 μM indomethacin (pH 7.4). The cells are homogenised using a Polytron tissue disrupter (2×10s burst at full setting), centrifuged at 48,000×g for 20 mins and the pellet containing the membrane fraction is washed (optional) three times by suspension and centrifugation at 48,000×g for 20 mins. The final membrane pellet is suspended in an assay buffer such as 10 mM 2-[N-morpholino]ethanesulphonic acid, 1 mM Na2EDTA, 10 mM MgCl2 (pH 6). Aliquots are frozen at −80° C. until required.
For the binding assay the cell membranes, competing compounds and [^3H]-PGE2 (3 nM final assay concentration) are incubated in a final volume of 100 μl for 30 min at 30° C. All reagents are prepared in assay buffer. Reactions are terminated by rapid vacuum filtration over GF/B filters using a Brandell cell harvester. The filters are washed with ice cold assay buffer, dried and the radioactivity retained on the filters is measured by liquid scintillation counting in Packard TopCount scintillation counter.
The data are analysed using non linear curve fitting techniques to determine the concentration of compound producing 50% inhibition of specific binding (IC50).

Compound	functional pKi value, human EP3 calcium mobilisation assay (EP3 receptors)	pIC50 value in the binding assay for the human prostanoid EP1 receptor (EP1 receptors)
O=C([O-])c1cccc(Cc2cc(Cl)ccc2OCc2ccc(F)cc2F)n1.[Na+] [Example 4, Sodium 6-[(5-chloro-2-{[(2,4-difluorophenyl)methyl]oxy}phenyl)methyl]-2-pyridinecarboxylate]	≤ 6.5	≥ 6
O=C(NS(=O)(=O)c1cc(Cl)cc(Cl)c1)c1cccc(Cc2cc(Cl)ccc2OCc2ccc(Cl)cc2F)n1 [Example 31]	≤ 6.5	≥ 6
CC(C)COc1ccc(Cl)cc1Cc1cccc(C(=O)[O-])n1.[Na+] [Example 15, Sodium 6-({5-chloro-2-[(2-methylpropyl)oxy]phenyl}methyl)-2-pyridinecarboxylate]	≤ 6.5	≥ 6
